The experiment has as its target IpaH4 bait (yeast two-hybrid) (Shigella flexneri). The experiment is described as follows: two-hybrid; two yeast two-hybrid screens with IpaH4 bait and human prey.

These are yes or no findings as the source states them, for the method shown. A result given as binding can be weak or reduced; the word gives no strength.

B1: human RNF214 yeast two-hybrid prey clones (central region, a.a. 276-504) (domain or fragment, UniProt Q8ND24 276-504)
chain: LKAIQDVTIKREETKKKIEKEKKEFLQKEQDLKAEIEKLCEKGRREVWEMELDRLKNQDGEINRNIMEETERAWKAEILSLESRKELLVLKLEEAEKEAELHLTYLKSTPPTLETVRSKQEWETRLNGVRIMKKNVRDQFNSHIQLVRNGAKLSSLPQIPTPTLPPPPSETDFMLQVFQPSPSLAPRMPFSIGQVTMPMVMPSADPRSLSFPILNPALSQPSQPSSPLP
Take B1: the binding result is reported as “binds”.
